Experimental data taken from publication PMC8783446.
No constants are given. Whether binding was seen depends on the method and setting. In cells and extracts the contact can be indirect. Some binding calls cover weakened binding; strength is not graded here. Sequences can lack the tags named with a protein.

Experiments:
[1] = target: T1, HA-CFP-tagged human NKCC1 (pcDNA3.1-HA-CFP-hNKCC1 WT (NT15-H)) (human) (UniProt P55011); experiment: condition: only freeze-thaw of the cell lysates or stringent washes of the IP pellets; co-IP; RH30 cells co-transfected with Flag-tagged Sgcg, Sgcb, Sgcd and an HA-CFP construct; modified RIPA1 (no SDS) extract; anti-HA on Protein A Dynabeads, 1 h at 4 °C; brief, low-stringency washes; blot for Sgcg-Flag
T1 sequence: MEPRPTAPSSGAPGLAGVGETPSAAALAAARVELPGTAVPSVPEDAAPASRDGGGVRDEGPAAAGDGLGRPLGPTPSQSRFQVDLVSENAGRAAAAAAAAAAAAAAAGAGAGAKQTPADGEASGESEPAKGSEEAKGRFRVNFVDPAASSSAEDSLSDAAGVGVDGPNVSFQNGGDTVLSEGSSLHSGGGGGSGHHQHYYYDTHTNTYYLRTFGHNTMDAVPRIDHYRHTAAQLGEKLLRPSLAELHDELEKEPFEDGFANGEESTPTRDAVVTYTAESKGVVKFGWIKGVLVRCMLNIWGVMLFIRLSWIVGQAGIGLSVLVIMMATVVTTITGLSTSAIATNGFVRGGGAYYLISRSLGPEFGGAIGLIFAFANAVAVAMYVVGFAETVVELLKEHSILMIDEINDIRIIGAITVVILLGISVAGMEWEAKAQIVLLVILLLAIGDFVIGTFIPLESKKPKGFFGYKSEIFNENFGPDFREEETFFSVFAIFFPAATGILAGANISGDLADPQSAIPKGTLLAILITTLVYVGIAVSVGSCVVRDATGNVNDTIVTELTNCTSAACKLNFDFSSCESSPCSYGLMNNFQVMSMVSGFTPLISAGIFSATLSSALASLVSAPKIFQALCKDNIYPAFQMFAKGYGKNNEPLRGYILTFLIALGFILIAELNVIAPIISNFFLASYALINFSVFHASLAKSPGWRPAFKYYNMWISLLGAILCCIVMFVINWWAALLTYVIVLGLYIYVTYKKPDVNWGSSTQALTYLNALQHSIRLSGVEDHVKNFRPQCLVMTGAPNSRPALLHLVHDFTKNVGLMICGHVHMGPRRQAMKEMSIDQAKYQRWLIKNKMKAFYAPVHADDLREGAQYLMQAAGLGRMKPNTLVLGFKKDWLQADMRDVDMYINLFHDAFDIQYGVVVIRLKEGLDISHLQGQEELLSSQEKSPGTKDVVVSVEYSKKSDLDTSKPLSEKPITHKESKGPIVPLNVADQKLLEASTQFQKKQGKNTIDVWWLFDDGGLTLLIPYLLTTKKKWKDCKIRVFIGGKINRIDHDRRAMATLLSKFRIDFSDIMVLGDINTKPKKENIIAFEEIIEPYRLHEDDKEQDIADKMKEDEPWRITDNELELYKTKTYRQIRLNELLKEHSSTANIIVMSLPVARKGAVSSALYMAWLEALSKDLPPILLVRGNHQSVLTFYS

[2] = target: T1, HA-CFP-tagged human NKCC1 (pcDNA3.1-HA-CFP-hNKCC1 WT (NT15-H)) (human); experiment: proximity ligation; Duolink In Situ Orange, mouse anti-HA and rabbit anti-Sgcg; co-transfected RH30 cells pre-extracted with 0.1% Triton X-100 in CSK buffer for 4 min on ice before fixation
[3] = target: T1, HA-CFP-tagged human NKCC1 (pcDNA3.1-HA-CFP-hNKCC1 WT (NT15-H)) (human); experiment: co-IP; RH30 cells co-transfected with Flag-tagged Sgcg, Sgcb, Sgcd and an HA-CFP construct; modified RIPA1 (no SDS) extract; anti-HA on Protein A Dynabeads, 1 h at 4 °C; brief, low-stringency washes; blot for Sgcg-Flag

- binding [1]: no binding
- binding [2]: binds
- binding [3]: binds weakly
B1: Myc-DDK (Flag)-tagged murine γ-sarcoglycan (protein, UniProt P82348 1-291)
chain: MVREQYTTVTEGTHIERPENQHIYKIGIYGWRKRCLYLFVLLLLAILVVNLALTIWILKVMWFSPIGMGHLHVTADGLRLEGESEFLFPLYAKEIRSRVDSSLLLQSTQNVTVSARNSEGEVTGRVKVGAQMVEVQSQHFQINSEDGKPLFSAEEQDVVVGTGRLRVTGPEGALFEHSVETPLVRADPFQDLRLESPTRSLSMDAPRGVHVKANAGKLEALSQMDIILQSSEGVLVLDAETVGLTKLKQGTQGPAGSSNGFYEICACPDGKLYLSMAGEVTTCEEHSHVCL
